Experimental findings from paper PMC10866704 are described below.

By UniProt entry, the sequences of proteins in these tests, tags left out.
UniProt P05556: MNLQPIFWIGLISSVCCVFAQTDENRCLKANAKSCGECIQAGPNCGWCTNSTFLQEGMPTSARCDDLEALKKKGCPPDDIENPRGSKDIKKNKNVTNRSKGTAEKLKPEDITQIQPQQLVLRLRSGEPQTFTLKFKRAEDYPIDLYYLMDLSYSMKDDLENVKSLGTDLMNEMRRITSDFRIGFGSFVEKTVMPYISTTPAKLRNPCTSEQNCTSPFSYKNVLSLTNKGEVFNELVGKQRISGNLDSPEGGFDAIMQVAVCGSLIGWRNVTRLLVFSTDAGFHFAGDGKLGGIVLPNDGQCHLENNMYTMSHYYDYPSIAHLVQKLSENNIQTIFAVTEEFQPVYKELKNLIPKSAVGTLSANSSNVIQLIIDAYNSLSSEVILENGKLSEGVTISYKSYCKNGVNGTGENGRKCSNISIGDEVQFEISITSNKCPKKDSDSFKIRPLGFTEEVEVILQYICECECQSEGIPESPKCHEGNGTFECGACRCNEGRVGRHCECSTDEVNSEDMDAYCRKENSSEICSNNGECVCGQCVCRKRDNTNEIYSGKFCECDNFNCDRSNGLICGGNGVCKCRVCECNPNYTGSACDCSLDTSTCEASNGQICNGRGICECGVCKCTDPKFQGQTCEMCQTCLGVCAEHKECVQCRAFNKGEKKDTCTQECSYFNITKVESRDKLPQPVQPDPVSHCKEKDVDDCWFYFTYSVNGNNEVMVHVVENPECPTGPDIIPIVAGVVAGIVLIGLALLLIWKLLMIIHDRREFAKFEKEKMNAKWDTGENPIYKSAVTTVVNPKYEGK
UniProt Q9HBL0: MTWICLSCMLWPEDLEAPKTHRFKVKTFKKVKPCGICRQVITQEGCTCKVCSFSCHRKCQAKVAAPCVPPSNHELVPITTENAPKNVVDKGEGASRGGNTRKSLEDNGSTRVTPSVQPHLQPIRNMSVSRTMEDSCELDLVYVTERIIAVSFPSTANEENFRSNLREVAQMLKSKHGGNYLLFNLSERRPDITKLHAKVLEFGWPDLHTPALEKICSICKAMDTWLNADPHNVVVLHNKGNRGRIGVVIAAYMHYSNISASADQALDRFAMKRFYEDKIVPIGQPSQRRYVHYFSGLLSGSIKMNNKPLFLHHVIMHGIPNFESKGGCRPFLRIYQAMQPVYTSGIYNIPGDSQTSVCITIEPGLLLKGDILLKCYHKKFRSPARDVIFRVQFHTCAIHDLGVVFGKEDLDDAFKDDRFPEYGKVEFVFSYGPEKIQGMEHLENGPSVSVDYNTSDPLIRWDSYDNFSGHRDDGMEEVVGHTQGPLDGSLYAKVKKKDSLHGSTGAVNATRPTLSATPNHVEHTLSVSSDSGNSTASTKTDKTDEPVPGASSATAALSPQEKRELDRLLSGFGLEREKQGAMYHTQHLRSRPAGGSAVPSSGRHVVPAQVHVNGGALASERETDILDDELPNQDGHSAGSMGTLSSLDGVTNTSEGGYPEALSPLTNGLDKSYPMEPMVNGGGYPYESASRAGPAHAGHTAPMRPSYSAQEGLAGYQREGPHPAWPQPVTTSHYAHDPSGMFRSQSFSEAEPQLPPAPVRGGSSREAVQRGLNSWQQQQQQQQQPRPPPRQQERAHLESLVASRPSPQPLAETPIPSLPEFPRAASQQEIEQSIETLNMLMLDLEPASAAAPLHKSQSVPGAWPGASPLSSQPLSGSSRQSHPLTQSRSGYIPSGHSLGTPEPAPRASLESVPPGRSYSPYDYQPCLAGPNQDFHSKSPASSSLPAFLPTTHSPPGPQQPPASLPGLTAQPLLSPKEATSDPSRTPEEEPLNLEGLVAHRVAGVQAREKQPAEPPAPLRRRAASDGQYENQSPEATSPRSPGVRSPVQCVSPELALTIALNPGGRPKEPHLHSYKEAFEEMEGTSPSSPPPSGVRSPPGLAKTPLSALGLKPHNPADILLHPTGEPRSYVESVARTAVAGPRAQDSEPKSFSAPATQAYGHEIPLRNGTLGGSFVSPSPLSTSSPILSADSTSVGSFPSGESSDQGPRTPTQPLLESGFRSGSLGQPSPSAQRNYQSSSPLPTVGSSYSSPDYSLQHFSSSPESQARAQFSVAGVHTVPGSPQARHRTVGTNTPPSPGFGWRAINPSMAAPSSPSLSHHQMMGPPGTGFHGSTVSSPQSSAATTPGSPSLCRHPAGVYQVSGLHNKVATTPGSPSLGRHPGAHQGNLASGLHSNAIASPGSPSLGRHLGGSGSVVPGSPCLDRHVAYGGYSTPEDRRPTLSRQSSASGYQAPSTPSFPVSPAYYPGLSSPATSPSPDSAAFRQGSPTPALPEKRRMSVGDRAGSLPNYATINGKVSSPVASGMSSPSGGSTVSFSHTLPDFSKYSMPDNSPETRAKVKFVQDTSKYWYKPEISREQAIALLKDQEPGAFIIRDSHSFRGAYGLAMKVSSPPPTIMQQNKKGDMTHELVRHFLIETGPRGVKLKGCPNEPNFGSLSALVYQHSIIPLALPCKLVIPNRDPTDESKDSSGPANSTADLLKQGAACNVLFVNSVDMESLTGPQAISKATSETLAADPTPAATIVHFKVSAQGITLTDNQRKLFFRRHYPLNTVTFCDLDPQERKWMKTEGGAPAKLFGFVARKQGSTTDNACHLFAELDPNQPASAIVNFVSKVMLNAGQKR

Results are given in words; binding and its absence hold for the method and conditions named. In cells and extracts the contact can be indirect. Some results given as binding are weak or reduced against the parent protein; the word gives no strength.

For assay [1], the target named is integrin β1 (human (endogenous in Huh7)) (UniProt P05556). Briefly: proximity ligation; PLA for integrin β1 and TNS1 in transfected Huh7 cells (tdTomato constructs) in low-viscoelasticity matrix.
Assay [2] shares this target. Briefly: proximity ligation; PLA for integrin β1 and TNS1 in Huh7 cells transfected with empty vector, full-length TNS1-tdTomato or dd-TNS1-tdTomato, in high-viscoelasticity hydrogels; co-localisation of the PLA signal (green) with tdTomato (red).
The target is the same in assay [3]. Put plainly: proximity ligation; Duolink PLA with anti-TNS1 and anti-integrin β1 primary antibodies in HCC (Huh7) cells encapsulated in low- versus high-viscoelasticity hydrogels; confocal microscopy, signal counted with ImageJ.

Take “full-length TNS1 in a tdTomato-N1 vector (from UniProt Q9HBL0 1-1839)”: the figures for the binding result in assay [1] and in assay [2] were “no binding (condition: in low viscoelasticity matrix)” and “binds”, respectively. In the case of “tensin 1 (TNS1) (from UniProt Q9HBL0 1-1839)”, the binding entry in assay [3] was “binds”.
